PubChem BioAssay AID1794845 (National Center for Advancing Translational Sciences (NCATS), 2023)
The campaign covered roughly 6,900 compounds. Fewer than 10 were called active. Calls come from the whole dose curve; as a rule, active = well fitted curve in the direction sought with a large enough effect; inconclusive = small, poorly fitted or top-dose-only effect, or another doubt; inactive = no such curve, though single readings can be large or run the other way. The list shows a part of the results.

Chains of the proteins cited; added tags and fusions are not shown. Lines headed by an entry give the natural chain unless they say otherwise; changes in a name come on top.
UniProt C7C422: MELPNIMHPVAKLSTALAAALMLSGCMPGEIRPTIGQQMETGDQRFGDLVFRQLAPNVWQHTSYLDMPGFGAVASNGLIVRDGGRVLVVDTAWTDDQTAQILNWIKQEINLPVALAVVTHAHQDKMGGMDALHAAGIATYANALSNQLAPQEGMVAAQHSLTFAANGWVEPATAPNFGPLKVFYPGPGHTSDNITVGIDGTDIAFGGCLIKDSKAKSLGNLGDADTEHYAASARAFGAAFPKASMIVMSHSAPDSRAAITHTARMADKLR

Target: Metallo-beta-lactamase type 2 (Klebsiella pneumoniae) (UniProt C7C422)
Assay: qHTS to identify inhibitors of the New Delhi Metallo-beta-lactamase (NDM): primary screen against the NCATS Gemini Collection; note: % of control where 0% means no effect
Conditions: NDM-1 enzyme, meropenem hydrolysis, absorbance 300 nm; at 38.4 µM (top of the series) unless noted
Source text: Assay Submitter (PI): James Inglese Ph.D., Patricia Dranchak Ph.D., Mahesh Aitha Ph.D. Assay Development and Screening Technology Laboratory (ADST) National Center for Advancing Translational Sciences (NCATS), Rockville, MD National Institute of Health (NIH), Bethesda, Maryland The metallo-beta-lactamases (MBL) are a main antibiotic resistance mechanism evolved by bacteria. There is an urgent clinical need for MBL inhibitors to mitigate this growing threat. To support a machine-based learning study, qHTS has been used to experimentally test inhibitors identified by prediction tools.
PROTOCOL TABLE (as described by Inglese et al., 2007) SEQUENCE No. (e.g., 1, 2, 3, etc.); […] (e.g., enzyme, Incubation, Reagent, etc.); VALUE; DESCRIPTION 1; NDM-1; 4 uL of 3 nM enzyme [2 nM final] in 50 mM HEPES (pH 7.0), 1 uM […], 0.01% Tween20; Use BioRaptr to dispense into Aurora black, clear bottom low base 1536-well plates 2; Compounds; 23 nL; Use Pin Tool (Wako) to transfer DMSO control and library compounds in DMSO 3; Incubate; >30 min 4; Reagent; 2 uL of 150 uM meropenem [50 uM final] 5; Incubate; 30 min. 6; Detector; Absorbance at 300 nm (bandwidth = 5 nm, 25 flashes/well) on Tecan Infinity NOTES (numbers refer to sequence above) 1; Column 1 of each plate received assay buffer without enzyme and columns 2-48 received enzyme for a final assay concentration of 2 nM. 2; Control plate contained DMSO in columns 1, 2, 3, and 4. 3; Compound interaction with enzyme. 4; Meropenem substrate was prepared in the same assay buffer as step 1 for a final assay concentration of 50 uM and added to all wells across the assay plates. 5; Substrate interaction with enzyme, plateau phase of kinetics. 6; Default reader settings were applied for absorbance read at 300 nm, bandwidth = 5 nm, 25 flashes/well. References: Inglese J, Shamu CE, Guy RK. 2007. Reporting data from high-throughput screening of small-molecule libraries. Nat Chem Biol. doi:10.1038/nchembio0807-438 Yasgar A, Shinn P, Jadhav A, Auld D, Michael S, Zheng W, Austin CP, Inglese J, Simeonov A. 2008. Compound Management for Quantitative High-Throughput Screening. J Lab Autom 13:79 - 89. doi:10.1016/j.jala.2007.12.004

Activity % (negative = inhibition), inactive:
O=C(c1ccc(Br)o1)N1CCC(c2n[nH]c(=O)n2Cc2ccc(F)cc2)CC1 -6.15%, COc1ccc(CN2CCC(N3CCOC3=O)CC2)cc1 5.85%, COc1cc(NC(=O)CCC2CCCN(C(=O)CCN3CCCCO3)C2)cc(OC)c1 (stereo not drawn) 8.56%, O=C(c1cccnc1)N1CCN(c2cc(-c3ccccc3)[nH]n2)CC1 -7.54%, O=S(=O)(c1ccccc1)N1CC(Oc2ccc(-c3noc(C4CC4)n3)cc2)C1 -0.784%, COCCN1CCCC1c1nc(C2CN(S(=O)(=O)c3cccc(OC)c3)C2)no1 (stereo not drawn) 7.75%, O=C(N[C@@H]1CCOC[C@H]1Oc1cccc(F)c1)c1cnc2ccccn2c1=O -1.67%, CCc1cccc2c(C(CC(=O)N3CCCCC3)c3cccc(OC)c3)c[nH]c12 (stereo not drawn) 15.2%, O=C(NC1CCN(c2nc3ncccc3o2)C1)c1ccccc1F (stereo not drawn) 2% [at 57.5 µM], CCCCN1C(=O)CC[C@H]2CN(C(=O)CCn3cccc3)CC[C@H]21 -0.184%, O=C(NC1CCc2n[nH]c(=O)n2CC1)c1ccc(Cn2ccnc2)o1 (stereo not drawn) -6.33%, CCN(CC)C(=O)[C@@H]1C[C@@H](n2cc(Cn3c(C)nc4ccccc43)nn2)CN1 7.7%, Cc1noc(C)c1-c1cc2cc(CO)oc2c(-c2ccc([S+](C)(=O)[O-])cc2)n1 11.9% [at 57.5 µM], CNC(=O)N1CCC(C2CCN(C(=O)c3cnccc3C)C2)CC1 (stereo not drawn) 2.76%, CCc1noc(-c2cn(C3CCN(C(=O)C4(c5ccccc5)CC4)C3)nn2)n1 (stereo not drawn) 6.75%, NC(=O)C1(N2CCCCC2)CCN(c2nccc(-c3ccncc3)n2)CC1 22.1%, O=C(CCc1c[nH]c2ccccc12)NC1CCc2n[nH]c(=O)n2CC1 (stereo not drawn) 2.13%, CCN1C(=O)Cc2ccccc2C1C(=O)N(C)Cc1ccco1 (stereo not drawn) 6.32%, O=S(=O)(c1cccnc1)N1CC(F)(F)C[C@H]1c1nc(C2CC2)no1 -0.53%, Cc1ccccc1-c1nc(Cn2ccnc2C(C)C)c(C)o1 13.6%, COc1cccc(C(=O)N2CC3(Cc4ccccc4CN3[S+](C)(=O)[O-])C2)c1 0.91%, CC1(C)C(=O)N(CC2CCOCC2)[C@H]2CN(Cc3cccnc3N)C[C@H]2[S+]1(=O)[O-] 3.1% [at 57.5 µM], O=c1cc(N2CCOCC2)oc2c(Nc3ccccc3)nccc12 14.4% [at 57.5 µM], Cn1c(COc2cccc(CN3CCCC3)c2Cl)nnc1C1CC(N)C1 (stereo not drawn) -9.84%, O=C1CC2CCN(Cc3coc(-c4ccccc4)n3)CC2CCN1 (stereo not drawn) 1.59%, Cc1cnc(C2CCC2)n1CCC1CCN(C(=O)c2ccc3ccccc3n2)CC1 -1.21%, COc1ccc(C(=O)N2CCOCCNC(=O)[C@H]3CCCC[C@H]32)c(OC)n1 2.89%, O=C(NC1CC1)C1c2ccccc2C(=O)N(C2CCCCC2)C12CCCCC2 (stereo not drawn) 9.96%, CN(CC1CCN(CCc2ccc(Cl)cc2)CC1)C(=O)c1ccccc1C#N 0.591%, O=C(c1ccc(-c2ccco2)cc1)N1CCOC(c2ccccc2)C1 (stereo not drawn) 31.3%, CCCN1CCN(C(=O)C2(c3ccc(NC(=O)C4CC4)cc3)CCCCC2)CC1 -0.352%, COc1ccc(CN2CCC(N3Cc4cccn4C3=O)CC2)cc1 -0.46%, COC(=O)[C@H]1CN(C(=O)NC(C)C)CCN1C(=O)c1cccnc1 0.502% [at 57.5 µM], CNC(=O)N1C[C@@H](Oc2ccccc2)C[C@H]1C(=O)NCCOC 8.41%, CC(=O)N1CCC(N[C@@H]2C[C@H](Cn3cc(-c4cccnc4)nn3)[C@@H](O)[C@H]2O)CC1 22.8%, CN[C@@H](C)C(=O)N1CC[C@H](NC(=O)Cc2cccs2)C[C@H]1C(=O)N[C@@H](Cc1ccc(OC)cc1)C(N)=O -0.685%, COCCCNc1ccnc(-c2nnc(C)n2-c2ccccc2)c1 8.1% [at 57.5 µM], CN1C(=O)[C@H]2CN(Cc3cn[nH]c3-c3cccs3)C[C@H]2C1=O 1.58%, Cc1cc(C)n(CCCN(C)C(=O)c2cn(Cc3ccc(F)cc3)nn2)n1 -1.67%, Cc1ncccc1OC1(C(=O)O)CCN(C(=O)Cc2ccn(C)c2)CC1 7.68%, C[S+](=O)([O-])N1CC2(CCN(Cc3ccc(Cl)cc3)C2)Cc2ccccc21 (stereo not drawn) -0.432%, COc1ccc(CCNC(=O)C2(C)CCOCC2)cc1 -3.56% [at 57.5 µM], CC(=O)N(C)CCc1noc(C2CN(Cc3c(F)cccc3Cl)C2)n1 0.117%, Cc1nn2c(c1-c1ccnn1C(C)C)N(C(=O)COc1ccccc1C(N)=O)CCC2 14.8% [at 57.5 µM], Cc1cc(C(=O)N[C@@H]2CCC[C@@H](C(=O)NC3CC3)CC(=O)N(C)C2)nn1C 55.1% [at 57.5 µM], O=C(NC1CCCCCC1)C1CCc2nnc(-c3ccccn3)n21 (stereo not drawn) -3.71% [at 57.5 µM], Cc1nn(-c2ccccc2)c2c1C(C1CC1)N(C1CCN(Cc3cccc(OC(F)(F)F)c3)CC1)C2=O (stereo not drawn) 10.9%, CC1=NOC2(CCN(Cc3ccc(N(C)C)cc3)C2)C1 (stereo not drawn) 1.08% [at 57.5 µM], O=C(Nc1ccc(F)cc1)c1c[nH]c2cccnc12 12.9% [at 57.5 µM], CC(C)(CC(=O)O)CC(=O)N1CCN2C(=O)N(CCc3cccs3)C(=O)[C@H]2C1 14.6% [at 57.5 µM], Cc1ccccc1CNC[C@H]1Cn2c(-c3ccccc3)cnc2CO1 36% [at 57.5 µM], COc1cc(C)c(-c2nc(CN3CCOC(CCN)C3)c(C)o2)cc1C (stereo not drawn) -1.12%, CCCCC(=O)N(C)CC1CCOC1 (stereo not drawn) 7.75%, CCc1noc(CN(C(=O)c2oc3ccc(C)cc3c2C)C(C)C)n1 2.78%, COc1ccc2c(c1)c(CN1C[C@@H](CO)[C@H](c3nc(C)no3)C1)cn2C 23.1%, CC(C(=O)Nc1nccs1)N1CCN(c2nccnc2C#N)CC1 (stereo not drawn) 0.485%, O=C(c1cccn1C1CC1)N1C[C@H](CO)C[C@H](CN2CCCC2)C1 0.546%, NC(=O)C1CCN(c2cc(-c3noc([C@@H]4CCCN4Cc4ccc(Cl)cc4)n3)ccn2)CC1 -5.61%, CCC1(N2CCN(S(=O)(=O)c3cccs3)CC2)CCN(S(C)(=O)=O)C1 (stereo not drawn) 0.936%, Cc1ccc(-c2ccnc(N(C)CC3CC(=O)N(C(C)(C)C)C3)n2)c(C)n1 (stereo not drawn) 11.9%, COc1cc(OC)cc(C(=O)NCC2CCCN(Cc3cc4ccccc4o3)C2)c1 (stereo not drawn) -2.54%, CSCC(=O)NCCC[C@H](NC(=O)[C@@H]1[C@@H](NC(=O)NC2CCCCC2)CCN1C(=O)CSC)C(N)=O 4.33%, O=C(c1ccc(-c2noc(C3CC3)n2)cc1)N1CCC2(CCOCC2)CC1 -3.04%, Cc1noc(C)c1[S+](=O)([O-])N1CCCC1C(=O)N1CCC(N2CCCC2=O)CC1 (stereo not drawn) 21.1%, CC(c1ccon1)N(C)C(=O)c1csc2nc(-c3cccc(C(F)(F)F)c3)cn12 (stereo not drawn) 0.813%, COC(=O)[C@@H]1Cc2ncn(Cc3ccc(Cl)cc3)c2CN1Cc1ccc(N(C)C)cc1 0.468%, CC(=O)N1CCC(N[C@@H]2CO[C@H](CNS(C)(=O)=O)[C@H]2O)CC1 0.39% [at 57.5 µM], Cc1nc(C2CC(O)C2)cc(N2CCC(OCc3cccnc3)CC2)n1 (stereo not drawn) 0.384%, Cc1ccc(C(=O)NCc2nnc3ccc(-c4ccccc4)nn23)s1 4.71%, CN1C(=O)C(CC(=O)N2CC(O)C2)(Cc2ccccc2)c2ccccc21 (stereo not drawn) 0.394%, CN(C)c1cc(N2CCCC(NC(=O)C3CCC3)C2)ncn1 (stereo not drawn) 9.93%, COCCN1C(=O)c2cccn2CC1CNS(=O)(=O)Cc1ccccc1 (stereo not drawn) 5.33%, CC(C)(C)CC(=O)N1CC[C@@H](CC(=O)O)[C@@H](CCN2CCN(c3ccccn3)CC2)C1 19% [at 57.5 µM], Cc1ncc2c(c1CNC(=O)Cc1ccsc1)CCN(C(=O)Cc1ccc(F)c(F)c1)C2 14.5%, O=C(NC1CC1)c1nc2sccn2c1-c1ccc(C(F)(F)F)cc1 6.68%, Cc1ccc(-n2cccc2CC(=O)N2CCOCC2)cc1 12%, O=C([C@@H]1C[C@H](F)CN1C(=O)CCCc1ccccc1)N1CCCCC1 -1.34%, C=CCN(C)C(=O)[C@@H](C)C1CC[C@@]2(C)Cc3sc(-c4cccnc4)nc3[C@@H](C)[C@@H]2[C@H]1O (stereo partly drawn) 5.62% [at 57.5 µM], CCCN(C)C(=O)CCc1ccnc(N2CCOCC2)c1 -6.07%, CCC(C(=O)N1CCC2(CC1)C(=O)N(CC(=O)NCC(C)C)CN2c1ccccc1)c1ccccc1 (stereo not drawn) -0.717%, Cc1cnc(C(=O)N2CCC3(CC2)CCC(O)(CN(C)C)CC3)cn1 -3.61%, Cc1ccncc1C(=O)N1CC[C@@H]2CN(S(C)(=O)=O)[C@@H]2C1 107%, O=C(c1ccc2ccccc2n1)N1CC2CC(C1)[C@H]1CCCC(=O)N1C2 (stereo partly drawn) 7.86%
